We go through one substance from patent US20250020650A1, “METHOD OF PREDICTING A PATIENT'S BENEFIT FROM THERAPY WITH AN IMMUNE CHECKPOINT INHIBITOR” (EBERHARD KARLS UNIVERSITAET TUEBINGEN MEDIZINISCHE FAKULTAET, priority 2021, published 2025).

The chains behind the UniProt entries cited, without tags or fusion partners. Residues count along the entry.
UniProt P02751, residues 32-2477: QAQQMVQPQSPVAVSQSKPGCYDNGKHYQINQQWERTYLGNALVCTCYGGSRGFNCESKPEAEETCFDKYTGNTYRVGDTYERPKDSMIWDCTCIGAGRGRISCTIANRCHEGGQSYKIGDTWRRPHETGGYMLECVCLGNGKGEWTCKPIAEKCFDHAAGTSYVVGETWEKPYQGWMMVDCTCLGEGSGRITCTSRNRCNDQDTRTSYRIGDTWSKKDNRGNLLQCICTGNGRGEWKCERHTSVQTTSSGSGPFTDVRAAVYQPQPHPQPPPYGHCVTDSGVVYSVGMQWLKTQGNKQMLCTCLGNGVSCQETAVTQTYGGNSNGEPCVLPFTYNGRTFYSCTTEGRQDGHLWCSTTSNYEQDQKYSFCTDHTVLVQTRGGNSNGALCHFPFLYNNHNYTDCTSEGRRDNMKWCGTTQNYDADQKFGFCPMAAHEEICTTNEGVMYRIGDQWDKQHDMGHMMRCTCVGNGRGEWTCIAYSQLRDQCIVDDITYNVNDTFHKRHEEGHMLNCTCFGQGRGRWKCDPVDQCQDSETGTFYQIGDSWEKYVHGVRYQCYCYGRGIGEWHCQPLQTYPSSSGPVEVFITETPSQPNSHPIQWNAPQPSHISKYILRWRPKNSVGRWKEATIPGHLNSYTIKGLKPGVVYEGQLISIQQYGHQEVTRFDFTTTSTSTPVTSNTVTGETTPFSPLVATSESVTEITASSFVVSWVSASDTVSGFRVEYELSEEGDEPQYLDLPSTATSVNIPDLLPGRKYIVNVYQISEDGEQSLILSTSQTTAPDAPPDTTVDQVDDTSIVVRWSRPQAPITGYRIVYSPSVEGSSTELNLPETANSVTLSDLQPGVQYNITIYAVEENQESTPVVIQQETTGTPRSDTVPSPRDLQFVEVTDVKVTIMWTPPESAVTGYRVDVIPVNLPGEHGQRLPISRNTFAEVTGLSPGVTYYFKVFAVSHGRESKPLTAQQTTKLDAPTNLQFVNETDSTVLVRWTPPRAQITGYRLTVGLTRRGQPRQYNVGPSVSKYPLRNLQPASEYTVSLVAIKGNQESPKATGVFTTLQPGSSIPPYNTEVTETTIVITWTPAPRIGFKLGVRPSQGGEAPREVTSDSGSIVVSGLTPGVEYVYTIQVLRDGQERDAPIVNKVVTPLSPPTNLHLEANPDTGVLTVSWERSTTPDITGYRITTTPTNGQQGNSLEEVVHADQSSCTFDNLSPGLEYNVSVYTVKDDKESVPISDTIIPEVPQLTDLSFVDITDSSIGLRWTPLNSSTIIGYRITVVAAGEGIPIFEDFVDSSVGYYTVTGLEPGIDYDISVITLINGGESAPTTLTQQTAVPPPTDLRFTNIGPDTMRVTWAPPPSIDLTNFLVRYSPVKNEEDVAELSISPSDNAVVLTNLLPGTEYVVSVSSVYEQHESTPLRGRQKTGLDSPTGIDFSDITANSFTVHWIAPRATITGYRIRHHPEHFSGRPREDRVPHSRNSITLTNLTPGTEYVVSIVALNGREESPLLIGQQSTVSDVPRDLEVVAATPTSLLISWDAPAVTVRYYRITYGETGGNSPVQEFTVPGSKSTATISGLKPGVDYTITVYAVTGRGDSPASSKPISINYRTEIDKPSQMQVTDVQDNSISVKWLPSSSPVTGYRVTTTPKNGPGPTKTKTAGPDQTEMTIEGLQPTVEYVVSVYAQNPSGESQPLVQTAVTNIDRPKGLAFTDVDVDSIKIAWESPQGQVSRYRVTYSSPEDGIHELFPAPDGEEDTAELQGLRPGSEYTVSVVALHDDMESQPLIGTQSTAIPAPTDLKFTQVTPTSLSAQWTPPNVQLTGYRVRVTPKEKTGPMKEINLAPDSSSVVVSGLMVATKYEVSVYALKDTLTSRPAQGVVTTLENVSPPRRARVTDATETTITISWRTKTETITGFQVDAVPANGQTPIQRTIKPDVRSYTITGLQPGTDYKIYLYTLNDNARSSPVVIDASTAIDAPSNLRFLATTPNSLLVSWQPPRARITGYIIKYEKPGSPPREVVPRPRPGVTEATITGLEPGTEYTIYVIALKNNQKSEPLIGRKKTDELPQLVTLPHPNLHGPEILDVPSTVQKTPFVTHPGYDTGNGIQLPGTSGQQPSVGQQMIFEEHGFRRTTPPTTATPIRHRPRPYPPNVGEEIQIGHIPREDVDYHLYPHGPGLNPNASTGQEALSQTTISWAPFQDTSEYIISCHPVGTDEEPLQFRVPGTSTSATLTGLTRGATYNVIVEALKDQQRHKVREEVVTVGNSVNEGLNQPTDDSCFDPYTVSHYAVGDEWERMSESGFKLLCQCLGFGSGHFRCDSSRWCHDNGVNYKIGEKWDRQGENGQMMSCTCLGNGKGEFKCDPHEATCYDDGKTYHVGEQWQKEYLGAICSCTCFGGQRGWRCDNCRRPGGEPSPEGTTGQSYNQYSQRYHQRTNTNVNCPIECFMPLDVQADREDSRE
UniProt Q9NZQ7, residues 19-290: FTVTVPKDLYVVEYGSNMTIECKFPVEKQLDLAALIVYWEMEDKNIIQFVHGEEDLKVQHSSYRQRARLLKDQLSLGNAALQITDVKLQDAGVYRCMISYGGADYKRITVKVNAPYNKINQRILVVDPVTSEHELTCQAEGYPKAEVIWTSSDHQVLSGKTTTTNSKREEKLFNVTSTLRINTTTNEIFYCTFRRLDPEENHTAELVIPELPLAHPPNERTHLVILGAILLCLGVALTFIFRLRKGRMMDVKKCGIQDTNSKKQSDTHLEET

In this assay the target is fibronectin 1 (on NSCLC tumor cells) (human) (UniProt P02751). The assay can be described thus: in situ proximity ligation assay on HOP-62 and NCI-H23 cells (anti-PD-L1 28-8, anti-fibronectin P1H11).

No constants are given. Whether binding was seen depends on the method and setting. In cells and extracts the contact can be indirect. Some results given as binding are weak or reduced against the parent protein; the word gives no strength.

Consider “programmed cell death 1 ligand 1 (PD-L1) (from UniProt Q9NZQ7 19-290)”, for which the binding result is given as “binds”.
